# Laboratory results as given in PubChem BioAssay AID1347423 (Functional Genomics Laboratory (NCATS/FGL), 2020).
# Screen size: about 52,000 sequences; about 210 (0.4%) were called active.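 The calls were made as follows: active = gene whose silencing raises cell survival under the drug, median off-target-corrected z-score across its silencing RNAs 2 or more; inactive = the rest.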 The list shows a part of the results.
# Test: Resistance to Poly (ADP-Ribose) Polymerase inhibitor: Gene Identification via Genome-wide siRNA Screen
# Conditions: mouse BRCA2 R2336H ES cells, olaparib, CellTiter-Glo viability; stronger effect = higher value
# Method in brief: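 Genome-wide siRNA screen (3 siRNAs/gene, 20 nM) in mouse ES cells carrying hypomorphic BRCA2 R2336H; olaparib 500 nM added 48 h post-transfection, CellTiter-Glo viability 72 h later. Normalized to plate-median negative control; MAD z-scores, gene median, seed-adjusted.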
row,Sequence,z-score
1,CGUACAAACAUAACUGUGGTT against Acp5,inactive: 1.23
2,GGCUGUCACUUUAUAGGCATT against Wrnip1,inactive: 0.316
3,AACUUCACUAUCUUGUUGGTT against Olfr594,inactive: 0.493
4,GGUGAAAGCUGUUAUCGAATT against Il17e,inactive: 0.276
5,GCACUUCCGGAAAAAGCGATT against Eva1,inactive: -0.0638
6,GCUUCAAUAUCUUCGUUGCTT against Olfr1461,inactive: -0.46
7,GCCAAUCCUUCAUAGUUUUTT against Kif18a,inactive: -0.676
8,GGUGAAGGCCUCCAUAUAUTT against A630085K21,inactive: -2.34
9,GGAAUCACGAAGGAGAUUCTT against MGC59529,inactive: -1.1
10,GCUUUAGGUCCAUUCGGAGTT against Pkd2l2,inactive: 0.743
11,CGAGGAAGAGAAUUUCUAUTT against Myc,inactive: 0.0795
12,CGCAAGAGGGAUGAAGGUATT against Pax5,inactive: -1.1
13,GGAGACGUGUCUGAAAGACTT against Glp2r,inactive: -0.752
14,UUAGCCACUCAUUGUUCCATT against Olfr1303,inactive: -1.49
15,GGAAGAAAACAUGGAAGAATT against Usp47,active: 3.28
16,GGAAAUCAGCUGUGAAAAATT against 4632423N09Rik,inactive: -1.36
17,GCAAUUAGUGGUUACAAGUTT against Corin,inactive: 0.115
18,CCUUCACCUGGCUAUUAGATT against Kif12,inactive: 0.61
19,AGCCACUUAUGUUAAUAAATT against 2700061N24Rik,inactive: -0.228
20,GGAAGUCUUGGAUUACAGUTT against Srpr,inactive: -1.06
21,GGACCUGUAUCUUGAAUCCTT against Tex2,inactive: 0.56
22,GGGCAACUAUCUUCAAAAATT against 4930519N16Rik,inactive: 0.235
23,GGCCAAAAAACAAUGCCCATT against Sprr4,inactive: 0.93
24,GGAAGACCUUGAAUUCCAGTT against Sas,inactive: -0.436
25,GGAUCAGAGUAUUUUUGUUTT against Tbx6,inactive: -0.959
26,CCUCCAAAAUGUGUCCACUTT against Krt1-10,inactive: 0.394
27,GGCAUUUCUAGUUUUGUGGTT against 3230401K02Rik,inactive: 0.331

row,Sequence,z-score
1,GGUACUUCAUGAGUUGUUCTT against Flt3,inactive: 0.615
2,GGUUUUUUGUAGCAAACAGTT against Phc2,inactive: 1.34
3,GGACUUUGUGAUCUUUCCATT against Miz1,inactive: -0.819
4,GGACUGUGUGUGCAAAGGUTT against Mt3,inactive: -0.951
5,CCAGAGCCCAAGCCAAGUUTT against Nanos3,inactive: -2.45
6,GCCGCUGCACUACAAUUUGTT against Trhde,inactive: 0.39
7,GGAGAAGGGACCUCAGAACTT against Plrg1,inactive: -1.82
8,GGUGUUCCAGUUACCUGAGTT against C630013N10Rik,inactive: -1.68
9,GCUCCCUUUACAACUCUCATT against Ifna6,inactive: 0.175
10,GGACAACGUGCUCAUUAGUTT against BC021921,inactive: -0.113
11,GGAACAGUGCUUGUAUCAGTT against Sfrs16,inactive: -0.897
12,GGUCAUUGUGUUAUUACCATT against Prdx4,inactive: -1.01
13,GGAUAUGUGUCGCCAUAUATT against 4930590J08Rik,inactive: -0.629
14,CCCACAGUUGACUGUCUUUTT against Clcnkb,inactive: -2.35
15,GGUUUUUCUCAACAAACUCTT against Svs2,inactive: -0.434
16,GCCAAUUGAUUAUAAUCGCTT against Riok2,inactive: 0.785
17,GGCUCCAAGGAGAAUUGUUTT against Bbox1,inactive: -1.3
18,GCCCUGAUGCCAAAUUCCATT against Tde1,inactive: 0.015
19,GGCUUCUUUAUGUUUCCUUTT against 2810449C13Rik,inactive: -1.33
20,GGAACAAGUUUGUGCUUUCTT against Cpd,inactive: 2.56
21,GGAGAACAUUCAAAAUACGTT against Sgol2,inactive: -0.973
22,GGAGUUAAACAAACAGAGUTT against Psma6,inactive: -2.36
23,GGACUUGGGUCAUUGUGAGTT against Grpel1,inactive: -0.0158
24,GGGUGAUGAGCCUAAGCUATT against Scamp5,inactive: -0.679
25,GGACAGCUACUUAUUUCUUTT against V1rd3,inactive: -0.339
26,CCGAAGUGGACGAAUACUUTT against A330102K23Rik,inactive: -1.63
27,GGAUACAAUGCAACUGUCCTT against Kif4,inactive: 0.653

row,Sequence,z-score
1,GGGCAAAGACAGUAUUCAATT against B530045E10Rik,inactive: 4.22
2,GGUCUCCAAGACGACAUAGTT against 2610209M04Rik,inactive: -2.01
3,GGAACAAAAGUGUGAAGAATT against Ccnd2,inactive: -0.745
4,GGCUUAUGUCACCAACUUGTT against 1300014I06Rik,inactive: -0.323
5,CCAUCUAACCCUAUAUUAGTT against G6pdx,inactive: 0.154
6,CGUGGCUAGGUUAUUUAAATT against Htr1d,inactive: 0.82
7,GGGCGAAAAGGUGAAACAATT against Flot2,inactive: -1.08
8,GUGAUGUGGCCAUGUCAAUTT against Olfr641,inactive: 1.04
9,GCAGAAGUUUUGAGCCACUTT against Ralgps2,inactive: -0.107
10,GGUGGUGUGUGAUGAGAAUTT against 4932702K14Rik,inactive: -0.314
11,GGAAGAAAUGCAGGUGUGGTT against Gab3,inactive: -0.49
12,GCUCAUCGAGCCUGUACACTT against Crsp7,inactive: -0.822
13,GGAAGAAUAAAGUGCUUUGTT against Chga,inactive: 0.735
14,GGGUGUACAGGAUUUCCACTT against Nfyc,inactive: 0.91
15,GGAGUUAUGGAUGACGUGGTT against Stard4,inactive: 0.945
16,GCCUGACGAUAAGAAAGAATT against Map4k4,inactive: -0.724
17,GGACAAGAUGAACUUUUCCTT against 2510048O06Rik,inactive: -3.35
18,GGAGAUCCACAUCAACGAATT against Slc9a1,inactive: 0.683
19,CCCAAUCCUGUCAAUAGUCTT against Gfpt1,inactive: 0.144
20,GGACAGAAACUCCUUAUCATT against Zec,inactive: -0.192
21,GGUACACAGCCAAAGACUGTT against A030005L19Rik,inactive: -0.946
22,GGGUUUUAAGUUUACUGCUTT against 4930579G22Rik,inactive: 1.95
23,GGUUAAAAAGAUCCCUUGUTT against A230056M16,inactive: 0.745
24,GCACUAGCUCUUCACCUCUTT against 5730455A04Rik,inactive: -1.26
25,GGAAAGUCACAACACUUCCTT against 6330527O06Rik,inactive: -0.761
26,GGUUUUGGUCACUCUUUGGTT against Olfr1240,inactive: 1.16
27,GCAGAUCAUUCCCGUGUUGTT against P2ry14,inactive: 0.873

# 4 successive entries from above, for reference:
row,Sequence,z-score
19,CCCAAUCCUGUCAAUAGUCTT against Gfpt1,inactive: 0.144
20,GGACAGAAACUCCUUAUCATT against Zec,inactive: -0.192
21,GGUACACAGCCAAAGACUGTT against A030005L19Rik,inactive: -0.946
22,GGGUUUUAAGUUUACUGCUTT against 4930579G22Rik,inactive: 1.95

# Rewritten with bars between the fields: part of the list above.
row | Sequence | z-score
6 | CGUGGCUAGGUUAUUUAAATT against Htr1d | inactive: 0.82
13 | GGAAGAAUAAAGUGCUUUGTT against Chga | inactive: 0.735
24 | GCACUAGCUCUUCACCUCUTT against 5730455A04Rik | inactive: -1.26

# (listing goes on)

row,Sequence,z-score
1,GGAAGGUAUCCACUGUGCATT against Nme6,inactive: -0.325
2,GGACCUGUUUGAUCCCAUCTT against Ckm,inactive: 0.0814
3,GGAGGAAGCUGAACUCUGGTT against Bat8,inactive: -0.592
4,CGAAACCAACAGUUAGAAGTT against 1110014P06Rik,inactive: 0.0196
5,GGGCCUAUCAAGAUUUUCCTT against Stk11ip,inactive: 1.6
6,CCCUAAUUCUUAGGCCUUUTT against Bloc1s3,inactive: 0.0832
7,GCCUAUGGAAUGGACAUACTT against 9130012B15Rik,inactive: 2.06
8,GGCUUAUGUUUGCUUUGUUTT against Piwil1,inactive: -0.416
9,GGUUCUGGAAAGUUCUCUGTT against Sorcs2,inactive: -1.4
10,GGUUUUACGGAAACGGGAATT against Nid2,inactive: -1.12
11,CCAAGUUCGUGACAAACAUTT against Trpv1,inactive: 1.09
12,GCUCAACUGCCUGAGAUGCTT against Pink1,inactive: 0.645
13,GGUGACUCACUCGUGUUAATT against Scn9a,inactive: 0.232
14,GGACCUUUAUAAUGACAGGTT against Uqcrb,inactive: -0.887
15,GGAAUGAACUCUUUGAAAATT against Opa1,inactive: 1.6
16,GCCUGAUGUACAUCACCACTT against Olfr615,inactive: 0.121
17,GUUCCACAAAGACCAUCAGTT against Olfr134,inactive: 0.53
18,GGUCUGCUGUUGAUCGUUCTT against Sct,inactive: 1.09
19,GCAACGAGAACUCUUUUUATT against Mint,inactive: 0.682
20,CCGAGCAAGGCAUAGAAAATT against LOC541463,inactive: -0.67
21,GCCAUUGUUGCUUACUCGGTT against Hspa14,inactive: 0.545
22,GCCAAAUUGCACCAUGUAUTT against 9530002K18Rik,inactive: -0.601
23,GCCACGAGUUCUUUGAAGCTT against Ubxd1,inactive: 0.256
24,GGGAGGCAAGCAUAAGACUTT against Cycs,inactive: -0.19
